Source: article PMC3762332
The exact form of at least one protein or probe is not confirmed. For part of these data: Protein sequences can lack the tags named with them.

Protein sequences, listed by entry. Tags and fused reporters are not part of them. Lines headed by an entry give the natural chain unless they say otherwise; changes in a name come on top.
UniProt O00716: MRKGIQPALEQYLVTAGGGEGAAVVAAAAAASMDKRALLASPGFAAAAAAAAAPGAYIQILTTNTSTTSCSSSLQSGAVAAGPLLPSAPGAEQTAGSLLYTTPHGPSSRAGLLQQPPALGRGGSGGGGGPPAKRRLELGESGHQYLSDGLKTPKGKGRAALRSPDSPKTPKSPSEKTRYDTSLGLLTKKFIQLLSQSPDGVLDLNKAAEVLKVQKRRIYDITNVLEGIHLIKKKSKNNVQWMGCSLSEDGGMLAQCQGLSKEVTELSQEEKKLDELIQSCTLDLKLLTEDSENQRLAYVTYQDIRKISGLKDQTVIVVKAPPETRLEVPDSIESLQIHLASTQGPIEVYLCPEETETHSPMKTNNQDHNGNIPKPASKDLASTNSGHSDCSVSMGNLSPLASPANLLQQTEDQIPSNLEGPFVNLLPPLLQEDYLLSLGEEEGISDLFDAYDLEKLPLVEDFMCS
UniProt P43694: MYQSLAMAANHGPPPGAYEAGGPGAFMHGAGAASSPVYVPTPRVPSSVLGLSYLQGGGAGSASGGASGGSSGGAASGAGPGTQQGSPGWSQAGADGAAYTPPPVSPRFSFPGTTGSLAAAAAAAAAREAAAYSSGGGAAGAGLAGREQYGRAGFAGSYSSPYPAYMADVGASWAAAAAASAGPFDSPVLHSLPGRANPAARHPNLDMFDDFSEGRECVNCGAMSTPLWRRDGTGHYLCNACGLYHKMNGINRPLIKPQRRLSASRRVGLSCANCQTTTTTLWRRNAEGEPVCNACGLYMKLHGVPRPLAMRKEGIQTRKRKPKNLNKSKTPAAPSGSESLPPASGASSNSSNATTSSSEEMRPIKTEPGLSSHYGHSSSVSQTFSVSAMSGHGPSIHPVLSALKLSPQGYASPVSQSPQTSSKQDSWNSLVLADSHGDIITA
UniProt Q02078: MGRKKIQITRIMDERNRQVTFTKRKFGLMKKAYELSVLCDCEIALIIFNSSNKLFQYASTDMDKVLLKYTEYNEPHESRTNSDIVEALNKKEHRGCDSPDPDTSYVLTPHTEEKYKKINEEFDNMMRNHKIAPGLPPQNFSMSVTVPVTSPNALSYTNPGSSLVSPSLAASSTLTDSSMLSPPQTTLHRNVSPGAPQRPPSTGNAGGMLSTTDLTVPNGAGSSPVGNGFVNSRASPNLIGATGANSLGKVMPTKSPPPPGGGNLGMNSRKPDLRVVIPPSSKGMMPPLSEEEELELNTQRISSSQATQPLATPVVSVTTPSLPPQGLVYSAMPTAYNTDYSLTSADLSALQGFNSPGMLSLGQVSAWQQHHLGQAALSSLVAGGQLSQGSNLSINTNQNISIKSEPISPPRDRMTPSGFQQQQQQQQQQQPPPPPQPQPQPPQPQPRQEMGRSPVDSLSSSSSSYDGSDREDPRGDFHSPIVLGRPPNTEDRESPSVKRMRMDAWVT
UniProt P05549: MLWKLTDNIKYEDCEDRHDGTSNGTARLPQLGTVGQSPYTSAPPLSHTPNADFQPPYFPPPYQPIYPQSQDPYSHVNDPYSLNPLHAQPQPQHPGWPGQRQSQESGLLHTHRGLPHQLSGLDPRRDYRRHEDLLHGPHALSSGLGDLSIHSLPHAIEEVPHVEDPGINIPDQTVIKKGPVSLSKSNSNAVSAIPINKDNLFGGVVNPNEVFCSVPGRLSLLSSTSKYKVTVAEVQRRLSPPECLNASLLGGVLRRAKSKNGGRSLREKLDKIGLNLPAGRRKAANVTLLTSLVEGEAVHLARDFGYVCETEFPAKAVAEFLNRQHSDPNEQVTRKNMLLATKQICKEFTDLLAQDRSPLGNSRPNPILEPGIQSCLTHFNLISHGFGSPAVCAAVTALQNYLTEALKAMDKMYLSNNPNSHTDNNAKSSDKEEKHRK
UniProt Q9Y2L8: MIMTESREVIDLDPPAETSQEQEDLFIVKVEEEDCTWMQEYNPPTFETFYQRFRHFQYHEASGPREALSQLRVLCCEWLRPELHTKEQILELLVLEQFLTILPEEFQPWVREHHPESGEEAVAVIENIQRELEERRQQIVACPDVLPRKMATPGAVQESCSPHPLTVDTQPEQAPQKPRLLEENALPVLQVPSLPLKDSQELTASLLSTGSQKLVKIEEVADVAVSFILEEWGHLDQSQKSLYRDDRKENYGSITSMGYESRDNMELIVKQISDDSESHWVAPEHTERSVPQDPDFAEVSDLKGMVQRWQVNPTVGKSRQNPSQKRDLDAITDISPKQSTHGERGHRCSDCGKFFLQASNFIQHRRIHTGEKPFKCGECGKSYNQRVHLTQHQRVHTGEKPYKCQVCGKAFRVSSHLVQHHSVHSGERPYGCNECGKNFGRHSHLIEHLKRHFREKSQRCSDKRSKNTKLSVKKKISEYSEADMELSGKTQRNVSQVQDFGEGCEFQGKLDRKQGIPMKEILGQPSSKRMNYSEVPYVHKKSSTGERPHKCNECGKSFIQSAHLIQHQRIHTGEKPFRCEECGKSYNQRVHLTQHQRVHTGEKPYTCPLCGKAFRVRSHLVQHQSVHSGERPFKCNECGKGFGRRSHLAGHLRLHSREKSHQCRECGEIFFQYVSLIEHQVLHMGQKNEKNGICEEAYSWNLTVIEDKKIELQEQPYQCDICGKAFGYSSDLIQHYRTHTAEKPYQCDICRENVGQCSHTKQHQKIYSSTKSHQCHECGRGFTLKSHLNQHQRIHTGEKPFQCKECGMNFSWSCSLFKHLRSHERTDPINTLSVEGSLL
UniProt Q8NC26: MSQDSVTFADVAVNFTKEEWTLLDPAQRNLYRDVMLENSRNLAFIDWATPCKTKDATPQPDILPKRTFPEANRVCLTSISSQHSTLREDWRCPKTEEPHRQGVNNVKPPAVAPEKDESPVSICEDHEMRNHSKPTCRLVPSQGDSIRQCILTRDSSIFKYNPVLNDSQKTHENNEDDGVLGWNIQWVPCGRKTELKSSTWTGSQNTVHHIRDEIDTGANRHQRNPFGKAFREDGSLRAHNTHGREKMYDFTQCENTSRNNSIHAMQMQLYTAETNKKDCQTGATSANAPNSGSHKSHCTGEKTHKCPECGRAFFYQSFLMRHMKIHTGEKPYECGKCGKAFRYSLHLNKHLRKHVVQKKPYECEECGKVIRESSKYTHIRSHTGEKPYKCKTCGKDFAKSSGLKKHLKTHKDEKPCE
UniProt Q9BWM5: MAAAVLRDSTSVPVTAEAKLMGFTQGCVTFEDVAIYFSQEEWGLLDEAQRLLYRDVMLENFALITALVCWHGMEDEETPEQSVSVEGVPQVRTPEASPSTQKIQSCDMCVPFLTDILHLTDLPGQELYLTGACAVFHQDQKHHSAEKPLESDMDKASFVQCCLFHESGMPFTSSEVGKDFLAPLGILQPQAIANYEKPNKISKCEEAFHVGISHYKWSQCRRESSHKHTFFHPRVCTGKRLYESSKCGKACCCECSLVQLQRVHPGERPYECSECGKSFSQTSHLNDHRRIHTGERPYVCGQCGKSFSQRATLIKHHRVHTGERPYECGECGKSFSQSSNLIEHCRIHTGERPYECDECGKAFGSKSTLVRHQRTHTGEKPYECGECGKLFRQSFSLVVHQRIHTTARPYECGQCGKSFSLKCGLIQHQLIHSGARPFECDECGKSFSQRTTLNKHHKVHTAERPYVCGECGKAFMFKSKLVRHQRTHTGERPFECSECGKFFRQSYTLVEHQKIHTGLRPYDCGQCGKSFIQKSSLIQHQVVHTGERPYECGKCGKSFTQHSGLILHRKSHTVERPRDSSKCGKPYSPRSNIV
UniProt O43186: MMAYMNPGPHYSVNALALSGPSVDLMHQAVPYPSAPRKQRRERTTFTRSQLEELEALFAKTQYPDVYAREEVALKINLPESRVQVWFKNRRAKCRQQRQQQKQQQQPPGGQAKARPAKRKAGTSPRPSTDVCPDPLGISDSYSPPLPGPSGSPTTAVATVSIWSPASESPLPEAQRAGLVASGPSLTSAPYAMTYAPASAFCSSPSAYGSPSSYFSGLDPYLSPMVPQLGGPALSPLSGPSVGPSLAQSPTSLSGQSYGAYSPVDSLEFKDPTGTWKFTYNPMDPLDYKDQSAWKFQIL
UniProt P20719: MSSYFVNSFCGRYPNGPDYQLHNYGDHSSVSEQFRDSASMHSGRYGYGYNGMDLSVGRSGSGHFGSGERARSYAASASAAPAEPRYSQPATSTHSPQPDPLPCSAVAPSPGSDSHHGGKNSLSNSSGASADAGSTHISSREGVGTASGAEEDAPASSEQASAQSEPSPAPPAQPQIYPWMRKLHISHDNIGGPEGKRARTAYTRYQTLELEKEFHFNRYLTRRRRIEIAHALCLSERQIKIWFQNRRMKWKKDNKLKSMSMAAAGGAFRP
UniProt Q8TAF7: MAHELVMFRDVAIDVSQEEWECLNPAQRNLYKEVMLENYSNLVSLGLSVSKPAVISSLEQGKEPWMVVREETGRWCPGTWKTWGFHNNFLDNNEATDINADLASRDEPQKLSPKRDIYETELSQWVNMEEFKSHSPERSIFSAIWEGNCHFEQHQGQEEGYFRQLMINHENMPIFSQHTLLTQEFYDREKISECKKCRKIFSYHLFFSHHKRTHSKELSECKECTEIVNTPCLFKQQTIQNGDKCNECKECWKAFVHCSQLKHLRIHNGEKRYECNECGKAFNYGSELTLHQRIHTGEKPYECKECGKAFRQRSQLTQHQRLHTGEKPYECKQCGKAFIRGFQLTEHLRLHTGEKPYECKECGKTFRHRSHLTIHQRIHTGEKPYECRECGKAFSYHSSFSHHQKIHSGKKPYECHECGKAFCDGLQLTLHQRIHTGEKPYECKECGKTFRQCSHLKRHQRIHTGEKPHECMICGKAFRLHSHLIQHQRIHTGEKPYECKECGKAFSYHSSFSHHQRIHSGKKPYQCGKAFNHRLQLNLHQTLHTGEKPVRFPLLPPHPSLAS
UniProt P35269, whole entry: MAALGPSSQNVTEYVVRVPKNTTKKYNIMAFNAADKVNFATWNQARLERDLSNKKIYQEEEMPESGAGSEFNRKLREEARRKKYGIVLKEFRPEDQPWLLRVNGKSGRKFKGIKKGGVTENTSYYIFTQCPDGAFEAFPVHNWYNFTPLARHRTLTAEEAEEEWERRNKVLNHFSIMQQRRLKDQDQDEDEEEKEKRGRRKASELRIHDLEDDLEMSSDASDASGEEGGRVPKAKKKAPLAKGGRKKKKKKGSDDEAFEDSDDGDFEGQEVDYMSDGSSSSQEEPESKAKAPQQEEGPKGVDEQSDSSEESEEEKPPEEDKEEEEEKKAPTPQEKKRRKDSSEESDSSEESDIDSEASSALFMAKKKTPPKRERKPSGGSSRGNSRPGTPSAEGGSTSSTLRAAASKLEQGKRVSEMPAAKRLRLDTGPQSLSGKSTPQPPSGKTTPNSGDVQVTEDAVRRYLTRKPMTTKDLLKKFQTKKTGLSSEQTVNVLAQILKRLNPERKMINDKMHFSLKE
UniProt Q96BD5: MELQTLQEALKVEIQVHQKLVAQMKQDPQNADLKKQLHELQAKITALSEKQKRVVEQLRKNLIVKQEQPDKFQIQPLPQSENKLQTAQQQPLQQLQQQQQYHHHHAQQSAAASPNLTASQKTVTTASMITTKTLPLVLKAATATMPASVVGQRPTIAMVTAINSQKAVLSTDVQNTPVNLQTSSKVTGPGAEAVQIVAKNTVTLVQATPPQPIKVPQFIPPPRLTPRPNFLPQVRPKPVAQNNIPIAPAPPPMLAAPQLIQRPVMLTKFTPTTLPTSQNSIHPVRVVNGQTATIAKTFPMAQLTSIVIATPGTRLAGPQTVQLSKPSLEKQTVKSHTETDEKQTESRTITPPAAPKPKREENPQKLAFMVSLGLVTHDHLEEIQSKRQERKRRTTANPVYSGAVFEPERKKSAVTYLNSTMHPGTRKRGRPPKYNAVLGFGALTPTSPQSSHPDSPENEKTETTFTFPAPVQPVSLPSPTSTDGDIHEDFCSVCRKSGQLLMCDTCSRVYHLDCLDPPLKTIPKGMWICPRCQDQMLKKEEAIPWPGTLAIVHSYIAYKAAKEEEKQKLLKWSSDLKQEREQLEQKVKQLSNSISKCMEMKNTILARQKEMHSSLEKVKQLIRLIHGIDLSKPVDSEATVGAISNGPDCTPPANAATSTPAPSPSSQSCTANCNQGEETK
UniProt P37231: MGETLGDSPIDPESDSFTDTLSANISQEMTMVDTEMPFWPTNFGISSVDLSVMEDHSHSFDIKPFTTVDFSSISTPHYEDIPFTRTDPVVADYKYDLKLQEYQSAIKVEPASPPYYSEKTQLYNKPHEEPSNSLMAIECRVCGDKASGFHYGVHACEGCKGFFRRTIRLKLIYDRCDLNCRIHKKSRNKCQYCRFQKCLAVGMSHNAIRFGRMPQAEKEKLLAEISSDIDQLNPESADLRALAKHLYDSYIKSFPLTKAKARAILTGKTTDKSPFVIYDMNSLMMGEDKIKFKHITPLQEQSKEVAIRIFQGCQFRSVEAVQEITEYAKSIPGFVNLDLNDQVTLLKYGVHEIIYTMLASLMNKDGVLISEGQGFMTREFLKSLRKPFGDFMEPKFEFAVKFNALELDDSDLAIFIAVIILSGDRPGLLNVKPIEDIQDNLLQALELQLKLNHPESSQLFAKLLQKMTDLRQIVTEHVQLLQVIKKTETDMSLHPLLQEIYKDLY

Tests used:
Experiment in all cases: protein microarray
Conditions in all cases: 10-fold cold unmethylated competitor; 5mC at CpG (SssI, both strands); recombinant protein; protein details: GST (N-terminal); label: Cy5
E2F3 (Homo sapiens) = E2F3 (Homo sapiens) (UniProt O00716)
GATA4 (Homo sapiens) = GATA4 (Homo sapiens) (UniProt P43694)
MEF2A (Homo sapiens) = MEF2A (Homo sapiens) (UniProt Q02078)
RBPJ (Homo sapiens) = RBPJ (Homo sapiens) (UniProt Q06330)
TFAP2A (Homo sapiens) = TFAP2A (Homo sapiens) (UniProt P05549)
ZKSCAN5 (Homo sapiens) = ZKSCAN5 (Homo sapiens) (UniProt Q9Y2L8)
ZNF114 (Homo sapiens) = ZNF114 (Homo sapiens) (UniProt Q8NC26)
ZNF416 (Homo sapiens) = ZNF416 (Homo sapiens) (UniProt Q9BWM5)
ZNF695 (Homo sapiens) = ZNF695 (Homo sapiens) (UniProt Q8IW36)
CRX (Homo sapiens) = CRX (Homo sapiens) (UniProt O43186)
HOXA5 (Homo sapiens) = HOXA5 (Homo sapiens) (UniProt P20719)
TGIF1 (Homo sapiens) = TGIF1 (Homo sapiens) (UniProt Q15583)
ZNF461 (Homo sapiens) = ZNF461 (Homo sapiens) (UniProt Q8TAF7)
CERS4 (Homo sapiens) = target: T1, CERS4 (Homo sapiens) (UniProt Q9HA82)
T1 sequence (looked up, limits assumed): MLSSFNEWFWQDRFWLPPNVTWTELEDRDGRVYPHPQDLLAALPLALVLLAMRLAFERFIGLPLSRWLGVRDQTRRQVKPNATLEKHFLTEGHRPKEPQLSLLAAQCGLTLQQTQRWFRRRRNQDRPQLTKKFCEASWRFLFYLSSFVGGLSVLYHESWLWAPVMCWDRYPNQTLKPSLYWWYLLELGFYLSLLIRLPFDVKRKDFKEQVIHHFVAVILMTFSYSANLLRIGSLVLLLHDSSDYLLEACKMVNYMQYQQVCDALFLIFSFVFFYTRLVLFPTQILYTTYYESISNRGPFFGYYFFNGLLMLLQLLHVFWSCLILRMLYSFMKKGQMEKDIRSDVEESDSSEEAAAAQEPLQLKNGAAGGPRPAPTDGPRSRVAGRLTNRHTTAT

GTF2F1 (Homo sapiens) = GTF2F1 (Homo sapiens) (UniProt P35269)
PHF21A (Homo sapiens) = PHF21A (Homo sapiens) (UniProt Q96BD5)
PMS1 (Homo sapiens) = target: T2, PMS1 (Homo sapiens) (UniProt P54277)
T2 sequence (looked up, limits assumed): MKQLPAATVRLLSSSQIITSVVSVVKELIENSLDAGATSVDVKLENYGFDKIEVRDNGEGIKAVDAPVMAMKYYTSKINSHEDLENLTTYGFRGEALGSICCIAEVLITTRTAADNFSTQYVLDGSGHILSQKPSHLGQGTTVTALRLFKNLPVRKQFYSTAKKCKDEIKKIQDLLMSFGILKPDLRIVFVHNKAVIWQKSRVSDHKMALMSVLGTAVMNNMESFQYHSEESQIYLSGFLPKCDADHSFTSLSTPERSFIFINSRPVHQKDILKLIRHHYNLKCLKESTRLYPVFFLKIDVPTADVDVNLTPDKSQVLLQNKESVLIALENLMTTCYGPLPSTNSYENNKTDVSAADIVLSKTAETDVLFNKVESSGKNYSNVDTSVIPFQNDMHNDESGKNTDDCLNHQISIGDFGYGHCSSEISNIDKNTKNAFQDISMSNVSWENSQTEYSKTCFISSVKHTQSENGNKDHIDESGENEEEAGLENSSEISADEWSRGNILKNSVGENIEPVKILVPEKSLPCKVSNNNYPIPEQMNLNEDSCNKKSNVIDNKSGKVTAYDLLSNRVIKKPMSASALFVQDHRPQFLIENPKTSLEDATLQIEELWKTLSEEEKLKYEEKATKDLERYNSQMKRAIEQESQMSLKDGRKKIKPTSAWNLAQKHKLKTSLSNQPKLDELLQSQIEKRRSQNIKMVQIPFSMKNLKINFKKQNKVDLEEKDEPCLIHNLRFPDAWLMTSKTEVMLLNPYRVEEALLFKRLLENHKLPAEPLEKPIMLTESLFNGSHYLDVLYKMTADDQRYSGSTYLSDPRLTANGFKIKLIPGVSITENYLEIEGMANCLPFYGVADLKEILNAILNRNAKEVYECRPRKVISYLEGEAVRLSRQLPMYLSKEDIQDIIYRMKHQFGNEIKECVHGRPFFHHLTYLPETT

ZMYM3 (Homo sapiens) = target: T3, ZMYM3 (Homo sapiens) (UniProt Q14202)
T3 sequence (looked up, limits assumed): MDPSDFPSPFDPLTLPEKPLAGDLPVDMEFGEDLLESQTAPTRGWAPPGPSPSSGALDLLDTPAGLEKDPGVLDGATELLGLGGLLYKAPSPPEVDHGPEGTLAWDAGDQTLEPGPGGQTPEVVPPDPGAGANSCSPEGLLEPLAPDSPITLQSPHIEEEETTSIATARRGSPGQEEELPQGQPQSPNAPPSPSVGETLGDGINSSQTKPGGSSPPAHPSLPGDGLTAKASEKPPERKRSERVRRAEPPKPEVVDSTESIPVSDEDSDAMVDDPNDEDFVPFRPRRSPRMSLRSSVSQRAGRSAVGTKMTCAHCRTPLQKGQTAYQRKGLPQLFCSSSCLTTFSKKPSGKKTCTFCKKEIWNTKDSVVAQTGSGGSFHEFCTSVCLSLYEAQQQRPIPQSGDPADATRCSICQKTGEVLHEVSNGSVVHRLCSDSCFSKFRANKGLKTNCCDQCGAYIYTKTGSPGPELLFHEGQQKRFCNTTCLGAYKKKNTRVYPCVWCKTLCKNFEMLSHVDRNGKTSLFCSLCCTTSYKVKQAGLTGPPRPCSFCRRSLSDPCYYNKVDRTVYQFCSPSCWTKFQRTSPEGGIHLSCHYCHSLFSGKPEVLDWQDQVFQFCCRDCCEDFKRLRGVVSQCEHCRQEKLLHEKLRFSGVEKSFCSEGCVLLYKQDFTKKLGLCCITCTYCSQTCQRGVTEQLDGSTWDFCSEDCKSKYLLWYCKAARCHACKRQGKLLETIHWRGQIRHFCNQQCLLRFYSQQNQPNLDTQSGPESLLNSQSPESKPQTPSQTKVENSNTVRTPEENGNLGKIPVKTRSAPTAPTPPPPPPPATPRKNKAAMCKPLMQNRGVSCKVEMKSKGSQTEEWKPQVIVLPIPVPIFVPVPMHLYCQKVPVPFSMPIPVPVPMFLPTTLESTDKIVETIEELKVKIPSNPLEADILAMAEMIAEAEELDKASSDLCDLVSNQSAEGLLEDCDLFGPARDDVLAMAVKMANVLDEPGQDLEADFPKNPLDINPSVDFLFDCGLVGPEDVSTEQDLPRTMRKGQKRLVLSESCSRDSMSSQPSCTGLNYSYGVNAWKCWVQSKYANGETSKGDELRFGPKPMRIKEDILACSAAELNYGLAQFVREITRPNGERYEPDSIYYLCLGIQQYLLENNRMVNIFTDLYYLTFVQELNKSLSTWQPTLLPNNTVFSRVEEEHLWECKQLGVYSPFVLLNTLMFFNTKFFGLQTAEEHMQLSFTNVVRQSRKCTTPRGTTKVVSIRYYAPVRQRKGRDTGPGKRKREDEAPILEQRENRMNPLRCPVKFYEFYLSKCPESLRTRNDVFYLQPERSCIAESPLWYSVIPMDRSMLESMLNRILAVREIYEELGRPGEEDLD

DIDO1 (Homo sapiens) = DIDO1 (Homo sapiens) (UniProt Q9BTC0)
PPARG (Homo sapiens) = PPARG (Homo sapiens) (UniProt P37231)
SCAPER (Homo sapiens) = target: T4, SCAPER (Homo sapiens) (UniProt Q9BY12)
T4 sequence (looked up, limits assumed): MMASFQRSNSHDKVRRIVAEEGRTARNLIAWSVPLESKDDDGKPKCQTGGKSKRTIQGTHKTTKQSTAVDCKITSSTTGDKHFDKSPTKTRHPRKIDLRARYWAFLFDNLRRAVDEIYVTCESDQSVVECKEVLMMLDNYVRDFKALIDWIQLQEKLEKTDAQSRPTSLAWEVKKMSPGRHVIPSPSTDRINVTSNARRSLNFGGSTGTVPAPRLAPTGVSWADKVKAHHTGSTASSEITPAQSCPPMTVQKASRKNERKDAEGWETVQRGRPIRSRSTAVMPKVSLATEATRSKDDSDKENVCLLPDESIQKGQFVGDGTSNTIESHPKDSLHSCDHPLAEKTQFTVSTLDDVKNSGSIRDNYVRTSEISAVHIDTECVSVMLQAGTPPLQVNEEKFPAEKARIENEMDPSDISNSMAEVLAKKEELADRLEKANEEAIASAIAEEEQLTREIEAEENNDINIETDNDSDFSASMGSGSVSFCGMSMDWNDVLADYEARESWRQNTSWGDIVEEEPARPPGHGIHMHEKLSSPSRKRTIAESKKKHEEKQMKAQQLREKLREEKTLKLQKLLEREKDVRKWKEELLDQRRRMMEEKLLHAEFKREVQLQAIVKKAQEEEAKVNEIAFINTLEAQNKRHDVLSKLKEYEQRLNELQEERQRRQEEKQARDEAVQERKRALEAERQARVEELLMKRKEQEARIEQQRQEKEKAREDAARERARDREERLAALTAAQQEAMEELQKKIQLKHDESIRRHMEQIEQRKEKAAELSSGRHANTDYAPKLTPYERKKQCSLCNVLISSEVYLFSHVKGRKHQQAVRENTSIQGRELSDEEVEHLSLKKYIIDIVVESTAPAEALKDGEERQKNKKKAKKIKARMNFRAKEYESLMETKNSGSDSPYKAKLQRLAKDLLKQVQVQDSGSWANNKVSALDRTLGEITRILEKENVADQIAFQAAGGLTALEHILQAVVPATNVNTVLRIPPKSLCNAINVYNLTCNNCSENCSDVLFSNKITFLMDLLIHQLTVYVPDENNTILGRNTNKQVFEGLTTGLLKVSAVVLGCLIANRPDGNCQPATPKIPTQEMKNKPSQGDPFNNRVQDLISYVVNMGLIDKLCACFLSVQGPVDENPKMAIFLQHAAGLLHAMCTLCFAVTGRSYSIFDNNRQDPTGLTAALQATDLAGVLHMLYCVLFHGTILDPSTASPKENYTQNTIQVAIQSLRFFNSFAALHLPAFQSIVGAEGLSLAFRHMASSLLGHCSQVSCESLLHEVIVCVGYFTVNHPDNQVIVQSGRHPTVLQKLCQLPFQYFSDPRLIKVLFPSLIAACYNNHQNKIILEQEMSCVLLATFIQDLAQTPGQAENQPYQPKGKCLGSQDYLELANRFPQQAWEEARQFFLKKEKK

Measured: binding result

CCGAGAACCAAACCGAGAACCCCCTATAGTGAGTGCTATTA (double strand) [M265]
binds: E2F3 (Homo sapiens) | GATA4 (Homo sapiens) | MEF2A (Homo sapiens) | RBPJ (Homo sapiens) | TFAP2A (Homo sapiens) | ZKSCAN5 (Homo sapiens) | ZNF114 (Homo sapiens) | ZNF416 (Homo sapiens) | ZNF695 (Homo sapiens)

CGTAATTAGGAAGGTAAATCCCCCGTAATTAGGAAGGTAAATCCCCTATAGTGAGTGCTATTA (double strand) [M116]
binds: CRX (Homo sapiens) | HOXA5 (Homo sapiens) | TGIF1 (Homo sapiens) | ZNF114 (Homo sapiens) | ZNF461 (Homo sapiens)

TGACGTCAAAATGACGTCACCCTATAGTGAGTGCTATTA (double strand) [M203]
binds: CERS4 (Homo sapiens) | E2F3 (Homo sapiens) | GATA4 (Homo sapiens) | GTF2F1 (Homo sapiens) | HOXA5 (Homo sapiens) | MEF2A (Homo sapiens) | PHF21A (Homo sapiens) | PMS1 (Homo sapiens) | ZMYM3 (Homo sapiens) | ZNF114 (Homo sapiens) | ZNF416 (Homo sapiens) | ZNF695 (Homo sapiens)

CTGCAGCGAGCAACTGAGAATCCAAGACAAACTGCAGCGAGCAACTGAGAATCCAAGACCCCTATAGTGAGTGCTATTA (double strand) [M24]
binds: CERS4 (Homo sapiens) | DIDO1 (Homo sapiens) | E2F3 (Homo sapiens) | GATA4 (Homo sapiens) | PPARG (Homo sapiens) | SCAPER (Homo sapiens) | TFAP2A (Homo sapiens) | ZNF114 (Homo sapiens) | ZNF416 (Homo sapiens) | ZNF695 (Homo sapiens)
